Results deposited as PubChem BioAssay AID686943 (Drosophila RNAi Screening Center, 2013).
The deposit covers about 23,000 reagents; this is an unselected part of those that have a named target and a result. 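Extra replicates exist only for a retested subset of genes; insulin dose and duration not given; both raised and lowered dpERK matter.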 Reagents against one gene are numbered here. Names joined by + are all predicted targets of the reagent. Not all columns of the deposit are shown. Not given: the amount of reagent, the time to read-out.

Purpose: 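Fly genes whose loss alters ERK activation after insulin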 (primary screen)
Cell system: Drosophila S2R+ haemocyte-like cells expressing YFP-tagged ERK (Rolled)
Reagents: long dsRNA against Drosophila genes
Treatment: insulin stimulation versus unstimulated cells; dose and duration not given
Detection: 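Per-plate z-scores of phospho-ERK immunostaining normalised to YFP-tagged ERK, measured with and without insulin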
Scale: replicate 1, z-score of dpERK with insulin: higher = more active ERK per ERK-YFP after insulin

replicate 1, z-score of dpERK with insulin, by target gene and reagent
CG11425: #1 0.25
CR31700 (pseudo): #1 0.23
sowah (sosondowah): #1 -0.46; #2 -0.75
dbo (diablo): #1 0.65
CG7582: #1 0.25
Est-P (Esterase P): #1 0.73
CG15443: #1 1.31
kni (knirps): #1 -0.24
tous (testes of unusual size): #1 0.99
stops (slow termination of phototransduction): #1 0.73; #2 -0.31; #3 -0.5
Rab27: #1 0.01
CG10333: #1 -0.05
ssp6 (short spindle 6): #1 0.13; #2 -3.51
Ostgamma (Oligosaccharide transferase gamma subunit): #1 0.14
htl (heartless): #1 0.6
CG11384: #1 -0.43
CG30056: #1 0.04
CG11251: #1 -0.54
CG17672: #1 -5.84; #2 0.46
ovo: #1 0.46; #2 0.9
Ccdc58 (Coiled-coil domain-containing 58): #1 0.38
CG4074: #1 -0.48
CG11191: #1 -0.34
CG15601: #1 0.12
CG1421: #1 0.78
CG32109: #1 -0.1
CG13160: #1 0.87
CG46339: #1 0.36
Pkc53E (Protein C kinase 53E): #1 -0.09; #2 -0.03
narya: #1 -0.42
Psf1 (Partner of Sld Five 1): #1 0.15
Teh1 (tipE homolog 1): #1 1.76
FAM21 (Family with sequence similarity 21): #1 0.13
CG14259: #1 -0.52
CG9970: #1 -0.8
CG17574: #1 0.31
Pkn + Tsen15: #1 0.8
Cul2 (Cullin 2): #1 -0.02
tna (tonalli): #1 -0.03; #2 1.94
CG14907 + Mettl4: #1 0.33; #2 0.38
Apoltp (Apolipoprotein lipid transfer particle): #1 1.55
CG1927: #1 0.01
Or42b (Odorant receptor 42b): #1 0.11
Mic26-27 (MICOS subunit 26/27): #1 0.29
Patsas: #1 -0.67
beta'COP (Coat Protein (coatomer) beta'): #1 2.04
pad (poils au dos): #1 0.03
CG15916: #1 0.2
